The values below come from paper PMC11290356.

Protein sequences, listed by entry. Tags and fused reporters are not part of them.
UniProt Q9NR19: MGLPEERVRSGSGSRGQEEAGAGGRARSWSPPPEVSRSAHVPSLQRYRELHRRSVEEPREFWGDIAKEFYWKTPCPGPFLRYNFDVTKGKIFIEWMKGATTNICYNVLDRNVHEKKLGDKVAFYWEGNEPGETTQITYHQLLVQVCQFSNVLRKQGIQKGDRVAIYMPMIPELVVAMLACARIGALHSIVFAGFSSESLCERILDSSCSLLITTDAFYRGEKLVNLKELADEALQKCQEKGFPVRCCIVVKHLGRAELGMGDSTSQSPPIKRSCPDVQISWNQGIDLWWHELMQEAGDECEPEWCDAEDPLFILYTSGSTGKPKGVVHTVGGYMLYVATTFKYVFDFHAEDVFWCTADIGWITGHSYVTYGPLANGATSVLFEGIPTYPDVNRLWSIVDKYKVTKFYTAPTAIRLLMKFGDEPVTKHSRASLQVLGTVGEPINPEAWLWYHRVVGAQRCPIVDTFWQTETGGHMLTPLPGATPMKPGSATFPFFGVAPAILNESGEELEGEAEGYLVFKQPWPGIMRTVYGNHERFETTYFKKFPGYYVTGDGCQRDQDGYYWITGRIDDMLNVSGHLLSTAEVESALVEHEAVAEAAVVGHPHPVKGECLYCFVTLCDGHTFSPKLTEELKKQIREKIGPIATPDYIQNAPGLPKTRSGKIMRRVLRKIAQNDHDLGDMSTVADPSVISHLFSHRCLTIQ

The target in this assay is acetyl-coenzyme A (CoA) synthetase 2 (ACSS2) (human (endogenous in A375)) (UniProt Q9NR19). Description: co-IP; anti-ACSS2 antibody (IgG as control) on SureBeads Protein A magnetic beads; A375 whole-cell lysate and lysate of isolated nuclei, 1x RIPA buffer, overnight at 4°C, washed 3 times with 0.1% TBST; Western blot.

Results are given in words; binding and its absence hold for the method and conditions named. Binding seen in cells or lysates may run through a third protein. Some entries that bind do so weakly or less than the wild type.

B1: aldehyde dehydrogenase 1A3 (ALDH1A3) (enzyme, UniProt P47895 1-512)
chain: MATANGAVENGQPDRKPPALPRPIRNLEVKFTKIFINNEWHESKSGKKFATCNPSTREQICEVEEGDKPDVDKAVEAAQVAFQRGSPWRRLDALSRGRLLHQLADLVERDRATLAALETMDTGKPFLHAFFIDLEGCIRTLRYFAGWADKIQGKTIPTDDNVVCFTRHEPIGVCGAITPWNFPLLMLVWKLAPALCCGNTMVLKPAEQTPLTALYLGSLIKEAGFPPGVVNIVPGFGPTVGAAISSHPQINKIAFTGSTEVGKLVKEAASRSNLKRVTLELGGKNPCIVCADADLDLAVECAHQGVFFNQGQCCTAASRVFVEEQVYSEFVRRSVEYAKKRPVGDPFDVKTEQGPQIDQKQFDKILELIESGKKEGAKLECGGSAMEDKGLFIKPTVFSEVTDNMRIAKEEIFGPVQPILKFKSIEEVIKRANSTDYGLTAAVFTKNLDKALKLASALESGTVWINCYNALYAQAPFGGFKMSGNGRELGEYALAEYTEVKTVTIKLGDKNP
For B1, the binding result is on record as “binds”.
